Experiment [1] addresses Elp1–KR9A–GFP (GFP-tagged Elp1 basic region mutant, nine basic residues to alanine) (S. cerevisiae) (UniProt Q06706). The experiment in a line: co-IP; GFP–Trap beads precipitate genomic GFP-tagged Elp1 from lysate of yeast that also carry a plasmid copy of 6HA-tagged Elp1; anti-HA blot; done in strains with ELP5 and repeated in elp5Δ strains; 150 mM NaCl, 4°C.
Experiment [2] concerns the target T1, Elp1–GFP (GFP-tagged wild-type Elp1, largest subunit of the Elongator complex) (S. cerevisiae) (UniProt Q06706).
T1 sequence: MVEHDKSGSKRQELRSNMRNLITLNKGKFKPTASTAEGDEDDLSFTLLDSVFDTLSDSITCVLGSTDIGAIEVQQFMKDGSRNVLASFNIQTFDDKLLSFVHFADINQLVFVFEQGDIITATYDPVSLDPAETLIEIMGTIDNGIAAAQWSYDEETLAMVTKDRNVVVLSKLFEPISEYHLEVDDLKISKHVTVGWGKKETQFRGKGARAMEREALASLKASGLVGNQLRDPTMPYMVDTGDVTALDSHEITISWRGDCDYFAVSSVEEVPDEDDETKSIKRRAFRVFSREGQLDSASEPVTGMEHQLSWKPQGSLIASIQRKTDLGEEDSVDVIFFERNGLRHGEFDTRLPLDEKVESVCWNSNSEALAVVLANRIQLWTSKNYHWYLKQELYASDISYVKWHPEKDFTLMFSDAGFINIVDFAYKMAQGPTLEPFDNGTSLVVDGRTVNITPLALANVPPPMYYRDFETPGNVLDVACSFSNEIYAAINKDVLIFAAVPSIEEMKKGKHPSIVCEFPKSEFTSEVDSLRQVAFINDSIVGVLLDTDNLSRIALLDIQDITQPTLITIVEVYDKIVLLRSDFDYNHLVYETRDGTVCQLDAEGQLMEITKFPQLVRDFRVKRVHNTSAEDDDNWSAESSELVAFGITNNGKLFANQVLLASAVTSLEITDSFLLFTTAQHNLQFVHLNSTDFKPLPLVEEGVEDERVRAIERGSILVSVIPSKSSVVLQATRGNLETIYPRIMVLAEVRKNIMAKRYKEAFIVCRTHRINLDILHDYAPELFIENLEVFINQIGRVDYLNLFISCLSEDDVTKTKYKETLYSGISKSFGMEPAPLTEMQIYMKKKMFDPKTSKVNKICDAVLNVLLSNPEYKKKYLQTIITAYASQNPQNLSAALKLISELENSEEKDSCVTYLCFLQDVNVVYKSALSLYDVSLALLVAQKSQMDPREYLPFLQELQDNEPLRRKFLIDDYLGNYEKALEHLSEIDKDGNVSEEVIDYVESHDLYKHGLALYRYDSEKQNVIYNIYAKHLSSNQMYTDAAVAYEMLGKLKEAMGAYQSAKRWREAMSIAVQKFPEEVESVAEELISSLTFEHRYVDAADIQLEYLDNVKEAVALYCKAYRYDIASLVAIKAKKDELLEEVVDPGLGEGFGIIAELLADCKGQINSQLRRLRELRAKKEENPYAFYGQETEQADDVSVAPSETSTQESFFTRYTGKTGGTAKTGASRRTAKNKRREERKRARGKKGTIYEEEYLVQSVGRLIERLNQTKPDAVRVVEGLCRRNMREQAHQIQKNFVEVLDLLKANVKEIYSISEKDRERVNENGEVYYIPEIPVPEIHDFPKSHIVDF
Described as above.

Experiment [3] concerns the target Elp1–KR9A–GFP (GFP-tagged Elp1 basic region mutant, nine basic residues to alanine) (S. cerevisiae) (UniProt Q06706). The experiment in a line: co-IP; GFP–Trap beads precipitate the GFP-tagged protein from yeast lysate; HA-tagged partners found by anti-HA blot and measured by densitometry; lysis buffer 50 mM HEPES-KOH pH 7.5, 150 mM NaCl, 2 mM MgCl2, 0.1% Triton X-100; 4°C.

These results are taken from article PMC4150532.

These are yes or no findings as the source states them, for the method shown. Binding seen in cells or lysates may run through a third protein. A result given as binding can be weak or reduced; the word gives no strength. Where a sequence is shown, tags or fusion partners need not be part of it.

“Elp1–KR9A–6HA (6HA-tagged Elp1 basic region mutant from YCplac111–elp1–KR9A–6HA) (from UniProt Q06706)”: the binding result in experiment [1] and in experiment [2] was “binds” in each case.

B1: Elp1–6HA (6HA-tagged wild-type Elp1 from YCplac111–ELP1–6HA) (protein, UniProt Q06706 1-1349)
chain: MVEHDKSGSKRQELRSNMRNLITLNKGKFKPTASTAEGDEDDLSFTLLDSVFDTLSDSITCVLGSTDIGAIEVQQFMKDGSRNVLASFNIQTFDDKLLSFVHFADINQLVFVFEQGDIITATYDPVSLDPAETLIEIMGTIDNGIAAAQWSYDEETLAMVTKDRNVVVLSKLFEPISEYHLEVDDLKISKHVTVGWGKKETQFRGKGARAMEREALASLKASGLVGNQLRDPTMPYMVDTGDVTALDSHEITISWRGDCDYFAVSSVEEVPDEDDETKSIKRRAFRVFSREGQLDSASEPVTGMEHQLSWKPQGSLIASIQRKTDLGEEDSVDVIFFERNGLRHGEFDTRLPLDEKVESVCWNSNSEALAVVLANRIQLWTSKNYHWYLKQELYASDISYVKWHPEKDFTLMFSDAGFINIVDFAYKMAQGPTLEPFDNGTSLVVDGRTVNITPLALANVPPPMYYRDFETPGNVLDVACSFSNEIYAAINKDVLIFAAVPSIEEMKKGKHPSIVCEFPKSEFTSEVDSLRQVAFINDSIVGVLLDTDNLSRIALLDIQDITQPTLITIVEVYDKIVLLRSDFDYNHLVYETRDGTVCQLDAEGQLMEITKFPQLVRDFRVKRVHNTSAEDDDNWSAESSELVAFGITNNGKLFANQVLLASAVTSLEITDSFLLFTTAQHNLQFVHLNSTDFKPLPLVEEGVEDERVRAIERGSILVSVIPSKSSVVLQATRGNLETIYPRIMVLAEVRKNIMAKRYKEAFIVCRTHRINLDILHDYAPELFIENLEVFINQIGRVDYLNLFISCLSEDDVTKTKYKETLYSGISKSFGMEPAPLTEMQIYMKKKMFDPKTSKVNKICDAVLNVLLSNPEYKKKYLQTIITAYASQNPQNLSAALKLISELENSEEKDSCVTYLCFLQDVNVVYKSALSLYDVSLALLVAQKSQMDPREYLPFLQELQDNEPLRRKFLIDDYLGNYEKALEHLSEIDKDGNVSEEVIDYVESHDLYKHGLALYRYDSEKQNVIYNIYAKHLSSNQMYTDAAVAYEMLGKLKEAMGAYQSAKRWREAMSIAVQKFPEEVESVAEELISSLTFEHRYVDAADIQLEYLDNVKEAVALYCKAYRYDIASLVAIKAKKDELLEEVVDPGLGEGFGIIAELLADCKGQINSQLRRLRELRAKKEENPYAFYGQETEQADDVSVAPSETSTQESFFTRYTGKTGGTAKTGASRRTAKNKRREERKRARGKKGTIYEEEYLVQSVGRLIERLNQTKPDAVRVVEGLCRRNMREQAHQIQKNFVEVLDLLKANVKEIYSISEKDRERVNENGEVYYIPEIPVPEIHDFPKSHIVDF
For B1, the binding result in experiment [1] is listed as “binds”.

B2: Elp3-3HA (HA-tagged Elp3 subunit of Elongator) (protein, UniProt Q02908 1-557)
chain: MARHGKGPKTNKKKLAPEKERFIQCCADITLELTDSLTSGTTREINLNGLITKYSKKYKLKQQPRLTDIINSIPDQYKKYLLPKLKAKPVRTASGIAVVAVMCKPHRCPHIAYTGNICVYCPGGPDSDFEYSTQSYTGYEPTSMRAIRARYDPYEQARGRVEQLKQLGHSIDKVEYVLMGGTFMSLPKEYREDFIVKLHNALSGFNGNDIDEAILYSQQSLTKCVGITIETRPDYCTQTHLDDMLKYGCTRLEIGVQSLYEDVARDTNRGHTVRSVCETFAVSKDAGYKVVSHMMPDLPNVGMERDIEQFKEYFENPDFRTDGLKIYPTLVIRGTGLYELWKTGRYKSYSANALVDLVARILALVPPWTRIYRVQRDIPMPLVTSGVDNGNLRELALARMKDLGTTCRDVRTREVGIQEVHHKVQPDQVELIRRDYYANGGWETFLSYEDPKKDILIGLLRLRKASKKYTYRKEFTSQRTSIVRELHVYGSVVPLHSRDPRKFQHQGFGTLLMEEAERIAKEEHGSEKISVISGVGVRNYYGKLGYELDGPYMSKRI
Take B2: the binding entry in experiment [3] was “binds”.
